PubChem BioAssay AID686943 | Drosophila RNAi Screening Center | 2013
Assay: 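Knockdowns that increase or decrease active ERK after insulin receptor stimulation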 (primary screen). Cells: Drosophila S2R+ haemocyte-like cells expressing YFP-tagged ERK (Rolled). Reagents: long dsRNA against Drosophila genes. Conditions: insulin stimulation versus unstimulated cells; dose and duration not given. Detection: 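Per-plate z-scores of phospho-ERK immunostaining normalised to YFP-tagged ERK, measured with and without insulin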. Scale: replicate 1, z-score of dpERK with insulin and replicate 2, z-score of dpERK with insulin: higher = more active ERK per ERK-YFP after insulin; replicate 1, z-score of dpERK under basal conditions: higher = more basal active ERK per ERK-YFP.
The deposit covers about 23,000 reagents; this is a random part of those with a known target gene and a result. 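Extra replicates exist only for a retested subset of genes; insulin dose and duration not given; both raised and lowered dpERK matter.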 Not all columns of the deposit are shown. The record does not give: the amount of reagent, the time to read-out.

| target gene | DRSC id | replicate 1, z-score of dpERK with insulin | replicate 2, z-score of dpERK with insulin | replicate 1, z-score of dpERK under basal conditions |
| --- | --- | --- | --- | --- |
| dysc (dyschronic) | DRSC10273 | 1.15 | 1.32 | 0.56 |
| dysc (dyschronic) | DRSC11040 | -0.25 | 0.27 | -0.73 |
| dysc (dyschronic) | DRSC22334 | 0.2 | -0.03 | 1.24 |
| dysc (dyschronic) | DRSC22437 | 0.1 | 0.69 | -1.49 |
| dysc (dyschronic) | DRSC22824 | -0.38 | -0.44 | -0.57 |
| GstE8 (Glutathione S transferase E8) | DRSC06678 | 0.21 | 0.15 | -0.9 |
| Patronin | DRSC06756 | -0.42 | -0.65 | -0.24 |
| Patronin | DRSC06757 | -1.27 | 0.1 | -0.7 |
| Patronin | DRSC06994 | -0.94 | -0.03 | 0.93 |
| bbg (big bang) | DRSC11077 | 1.13 | 0 | -0.05 |
| bbg (big bang) | DRSC11079 | 0.29 | -0.74 | -0.7 |

Laid out differently: results already given
dysc (dyschronic) [DRSC11040]
- replicate 1, z-score of dpERK with insulin: -0.25
- replicate 2, z-score of dpERK with insulin: 0.27
- replicate 1, z-score of dpERK under basal conditions: -0.73

dysc (dyschronic) [DRSC22334]
- replicate 1, z-score of dpERK with insulin: 0.2
- replicate 2, z-score of dpERK with insulin: -0.03
- replicate 1, z-score of dpERK under basal conditions: 1.24

dysc (dyschronic) [DRSC22437]
- replicate 1, z-score of dpERK with insulin: 0.1
- replicate 2, z-score of dpERK with insulin: 0.69
- replicate 1, z-score of dpERK under basal conditions: -1.49

The results go on:
| target gene | DRSC id | replicate 1, z-score of dpERK with insulin | replicate 2, z-score of dpERK with insulin | replicate 1, z-score of dpERK under basal conditions |
| --- | --- | --- | --- | --- |
| sip3 (septin interacting protein 3) | DRSC15402 | 0.02 | 0 | 0.15 |
| Osi18 (Osiris 18) | DRSC12181 | -0.2 | -0.37 | 1.06 |
| mRNA-cap (mRNA-capping-enzyme) | DRSC19789 | 2.14 | 3.13 | -1.77 |
| LRP1 (LDL receptor protein 1) | DRSC07238 | 0.26 | 0.19 | 0.09 |
| CG8353 | DRSC03084 | 0.14 | -0.27 | -0.85 |
| bdwf (bedwarfed) | DRSC15532 | 0.85 | 0.57 | -0.03 |
| CG9799 | DRSC16567 | 0.78 | 0.13 | 2.99 |
| Mipp2 (Multiple inositol polyphosphate phosphatase 2) | DRSC18682 | 0.47 | 0.36 | 0.41 |
| CG1701 | DRSC06641 | 0.18 | 0.38 | 0.43 |
| CalpC (Calpain C) | DRSC19873 | 0.47 | 0.33 | 0.29 |
| Acp98AB (Accessory gland protein 98AB) | DRSC21837 | -0.45 | -0.07 | 0.94 |
| mRpL37 (mitochondrial ribosomal protein L37) | DRSC16062 | -1.02 | 0.52 | -0.22 |
